# Data as given in PubChem BioAssay AID1259261 (Sanger Institute, 2017)
# Assay: 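Find kinase silencing that cuts viability alone or with anchor drugs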 (primary screen)
# Cell system: HCC2998 human colorectal cancer cells
# Knock-down reagent: siRNA pool against human genes
# Conditions: anchor drugs BYL719 1 µM, cetuximab 5 µg/ml or trametinib 10 nM, each compared with DMSO vehicle
# Measured: 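Viability as fraction of non-targeting control plus robust z-score without drug; synergy scores compare knock-down plus drug against each alone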
# Scale: viability z-score, knock-down alone: higher = more viable cells than controls
# Call rule: 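Essential when the siRNA-alone viability robust z-score is below -3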
# Calls: active = essential; inactive = no change
# The deposit covers 794 reagents; shown is a random part of them. 10 of all reagents (1.3%) count as active. 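Calls reflect knock-down alone without drug; synergy scores with BYL719, cetuximab or trametinib do not affect calls.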 Not all columns of the deposit are shown. Not stated in the record: the amount of reagent, the time to read-out.
gene knocked down,PubChem SID,"viability z-score, knock-down alone",Outcome
NEK3,SID152154962,0.578,inactive
CAMK2D,SID56478759,1.21,inactive
ASPM,SID135623115,0.673,inactive
MAP2K5,SID135620764,1.21,inactive
CAMKK2,SID135620895,0.0588,inactive
TEX14,SID152148327,0.276,inactive
PIK3C3,SID134310831,-0.219,inactive
MARK3,SID56478669,-0.301,inactive
CNOT1,SID134319414,-0.928,inactive
MECOM,SID135621208,0.13,inactive
PTPRU,SID152150387,-0.144,inactive
IKBKE,SID56478721,-2.84,inactive
AMHR2,SID56478996,0.266,inactive
RPS6KA2,SID135620862,-3.43,active
CDK18,SID56478887,-1.97,inactive
AK4,SID152149659,0.31,inactive
JAK3,SID56478525,1.21,inactive
ERN2,SID135620900,0.835,inactive
CSNK1E,SID56478659,1.21,inactive
TWF2,SID56478547,-0.114,inactive
MOS,SID56478732,1.21,inactive
MAP4K1,SID56478699,-0.442,inactive
PDGFRL,SID134315029,-0.762,inactive
PGK2,SID135621248,0.5,inactive
AXIN2,SID135621652,0.769,inactive
ITK,SID135620623,1.08,inactive
FXR1,SID152147249,-0.872,inactive
KSR1,SID152156641,-2.96,inactive
CSNK1A1L,SID135620867,0.65,inactive
HIPK4,SID135620890,0.824,inactive
KSR2,SID152149204,-1.03,inactive
TTK,SID56478775,-1.22,inactive
PRKY,SID135620861,-0.213,inactive
STK11,SID152153881,-1.2,inactive
